At least one compound was matched to its structure with a doubt left.
Columns and labels:
[1] = test system: parental LAPC4 cells; assay: PSA mRNA (RT-PCR) and secreted PSA protein (ELISA) expression, parental cells; conditions: androgen-starved 5 days, high-dose challenge
[2] = test system: LAPC4 cells expressing increased levels of AR; assay: PSA mRNA (RT-PCR) and secreted PSA protein (ELISA) expression, cells with increased AR; conditions: androgen-starved 5 days, challenge 96 hour (RT-PCR) or 48 hour (ELISA)
[3] = test system: LNCaP-AR cells; assay: in vitro growth in the presence of the antiandrogen bicalutamide; format: cell-based, human; conditions: 10% full serum, colonies at 2 weeks
[4] = test system: LNCaP cells infected with the empty-vector control; assay: Affymetrix U133A microarray of induced genes, empty-vector control cells; format: cell-based, human; conditions: 10 μM bicalutamide

## CC(O)(CS(=O)(=O)c1ccc(F)cc1)C(=O)Nc1ccc(C#N)c(C(F)(F)F)c1 (stereo not shown) [bicalutamide]
[1]
  effect on PSA mRNA and protein expression: typical antagonist activity
[2]
  effect on PSA expression: functioned as an agonist
[3]
  growth in the presence of bicalutamide: resistant
[4]
  elements significantly upregulated: no elements were significantly upregulated
